Experimental data: PubChem BioAssay AID1508588 (Peter MacCallum Cancer Centre, 2020)
Shown is one part, drawn at random, of about 18,000 deposited reagents. 790 of all reagents (4.4%) were called active. 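Calls rest on a combination of fold-change classes in drug and vehicle arms, not all shown here.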

- Screen: 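Genome-wide search for knock-downs that heighten vemurafenib action in melanoma cells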 (primary screen)
- Cells: human WM266.4 melanoma cells (BRAF V600 mutant)
- Knock-down reagent: siRNA pool against human genes, 40 nM
- Duration: 96 h from transfection to read-out
- Conditions: vemurafenib 300 nM (about IC25), added 48 h after transfection, for 48 h; comparison arm got DMSO vehicle only
- Measured: 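Ratios to non-targeting siRNA for cell gain, counted as DAPI nuclei after minus before drug and averaged over two replicates, and for absorbance-read medium lactate per cell; both binned into fold-change classes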
- Scale: cell gain with vemurafenib: higher = more cell gain than with non-targeting siRNA; lactate per cell with vemurafenib: higher = more lactate made per cell
- Rule for the call: 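a knock-down counts as enhancing when its fold-change classes with vehicle and with vemurafenib, taken together, show a stronger drug effect on cell gain or lactate per cell; exact class pairs not stated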
- Meaning of the calls: active = enhances vemurafenib effect; inactive = no enhancement seen

FMNL3 (formin like 3) scored cell gain with vemurafenib 0.82; lactate per cell with vemurafenib 0.88; inactive.
For PDZRN4 (PDZ domain containing ring finger 4) the deposit lists cell gain with vemurafenib 1.07; lactate per cell with vemurafenib 0.74; inactive.
After knock-down of B4GALT3 (beta-1,4-galactosyltransferase 3) the results were cell gain with vemurafenib 1.34; lactate per cell with vemurafenib 0.88; inactive.
Depletion of ANP32D (acidic nuclear phosphoprotein 32 family member D) came out at: cell gain with vemurafenib 0.82; lactate per cell with vemurafenib 1.32; inactive.
After knock-down of MANEAL (mannosidase endo-alpha like), the record shows cell gain with vemurafenib 0.26; lactate per cell with vemurafenib 1.82; inactive.
For ALDOA (aldolase, fructose-bisphosphate A), the entry reads cell gain with vemurafenib -0.17; lactate per cell with vemurafenib 5.53; inactive.
LMAN1L (lectin, mannose binding 1 like) showed cell gain with vemurafenib 0.59; lactate per cell with vemurafenib 1.12; inactive.
For FAM47A (family with sequence similarity 47 member A), the entry reads cell gain with vemurafenib 0.62; lactate per cell with vemurafenib 1.01; inactive.
Depletion of FBXO21 (F-box protein 21) resulted in: cell gain with vemurafenib 0.16; lactate per cell with vemurafenib 0.81; inactive.
Knock-down of EPB41L4A (erythrocyte membrane protein band 4.1 like 4A) came out at: cell gain with vemurafenib 0.88; lactate per cell with vemurafenib 0.69; inactive.
After knock-down of PSMB9 (proteasome 20S subunit beta 9), the record shows cell gain with vemurafenib 0.77; lactate per cell with vemurafenib 2; inactive.
AMN (amnion associated transmembrane protein) scored cell gain with vemurafenib 0.81; lactate per cell with vemurafenib 1.09; inactive.
With knock-down of SLX4IP (SLX4 interacting protein) the results were cell gain with vemurafenib 0.92; lactate per cell with vemurafenib 0.58; inactive.
After knock-down of HES3 (hes family bHLH transcription factor 3), the record shows cell gain with vemurafenib 0.74; lactate per cell with vemurafenib 2.23; inactive.
AHSA1 (activator of HSP90 ATPase activity 1) gave cell gain with vemurafenib 0.19; lactate per cell with vemurafenib 0.89; inactive.
With knock-down of KRTAP12-3 (keratin associated protein 12-3) the results were cell gain with vemurafenib 0.81; lactate per cell with vemurafenib 0.56; inactive.
GALT (galactose-1-phosphate uridylyltransferase) scored cell gain with vemurafenib 0.8; lactate per cell with vemurafenib 0.59; inactive.
After knock-down of MYG1 (MYG1 exonuclease), the screen gave cell gain with vemurafenib 0.46; lactate per cell with vemurafenib 1.52; inactive.

2 of these entries, set out differently.
{"Gene": "FMNL3 (formin like 3)", "cell gain with vemurafenib": 0.82, "lactate per cell with vemurafenib": 0.88, "call": "inactive"}
{"Gene": "PDZRN4 (PDZ domain containing ring finger 4)", "cell gain with vemurafenib": 1.07, "lactate per cell with vemurafenib": 0.74, "call": "inactive"}

Next reagents follow.
Knock-down of TDRD9 (tudor domain containing 9) came out at: cell gain with vemurafenib 0.53; lactate per cell with vemurafenib 0.64; inactive.
After knock-down of CHRNG (cholinergic receptor nicotinic gamma subunit) the results were cell gain with vemurafenib 0.53; lactate per cell with vemurafenib 0.88; inactive.
Depletion of RAB5IF (RAB5 interacting factor) gave: cell gain with vemurafenib 0; lactate per cell with vemurafenib 0; inactive.
Against TAS1R3 (taste 1 receptor member 3) the deposit lists cell gain with vemurafenib 0.21; lactate per cell with vemurafenib 2.75; inactive.
With knock-down of PLA2G1B (phospholipase A2 group IB), the screen gave cell gain with vemurafenib 0.44; lactate per cell with vemurafenib 0.95; inactive.
NUDT15 (nudix hydrolase 15) showed cell gain with vemurafenib 0.66; lactate per cell with vemurafenib 0.58; inactive.
AR (androgen receptor) scored cell gain with vemurafenib 0.84; lactate per cell with vemurafenib 0.99; inactive.
Silencing of ABLIM3 (actin binding LIM protein family member 3) came out at: cell gain with vemurafenib 0.36; lactate per cell with vemurafenib 1.27; inactive.
GBP3 (guanylate binding protein 3) showed cell gain with vemurafenib 0.41; lactate per cell with vemurafenib 0.52; inactive.
